{
  "source": "patent US20250326720A1",
  "about": "“CAREBASTINE SALT AND USE OF SAME” (priority 2022, published 2025)",
  "key": {"[1]": {"test_system": "histamine-induced shock in guinea pigs", "assay": "Histamine-induced shock test in guinea pigs", "format": "in vivo", "details": "gavage, equimolar to 1.00 mg/kg ebastine, histamine phosphate i.v. one hour after administration, x ± s, n = 10", "procedure": "One hour after administration, 0.125 wt. % histamine phosphate saline solution was injected intravenously into lateral sides of hind paws of the guinea pigs at 2 ml/kg. After the injection was completed within 10 s, a stopwatch was used immediately to observe the latency period for the guinea pigs to develop accelerated respiration and collapse with convulsions."}, "KM mice": {"test_system": "KM mice", "details": "for Mortality rate of mice / Number of surviving mice: single intragastric, 14 days observation; for Number of surviving mice: 10 mice per group", "procedure": "All drugs were administered by intragastric administration, and the blank control group was administered with an equal volume of 0.5% CMC-Na solution. All animals were fasted for 12 hours before administration, but were allowed to drink water freely.\nAfter administration, the mice were kept and observed for 14 days, and the toxic reactions (such as death) of the mice were observed and recorded every day. After the observation period, all surviving animals were dissected to observe whether there were obvious lesions in each organ."}, "[2]": {"details": "high dose (equimolar to 5 g/kg ebastine)"}, "[3]": {"details": "low dose (equimolar to 2.5 g/kg ebastine)"}},
  "note": "Like-named read-outs stand apart in the source and are kept apart here.",
  "data": [
    {"smiles": "CC(C)(C)c1ccc(C(=O)CCCN2CCC(OC(c3ccccc3)c3ccccc3)CC2)cc1", "note": "[Comparative Example 1, ebastine]", "values": [
      {"measurement": "Time of accelerated respiration", "setting": "[1]", "result": "151 ± 19.97 ^ s"},
      {"measurement": "Mortality rate of mice", "setting": "KM mice; [2]", "result": 60, "unit": "%"},
      {"measurement": "Number of surviving mice", "setting": "KM mice; [2]", "result": 4},
      {"measurement": "Mortality rate of mice", "setting": "KM mice; [3]", "result": 0},
      {"measurement": "Number of surviving mice", "setting": "KM mice; [3]", "result": 10},
      {"measurement": "abnormalities during observation period and in gross anatomical observation", "setting": "KM mice; mouse, in vivo", "result": "no obvious abnormalities were observed"}
    ]}
  ]
}
